Data published in the supplement of paper PMC3334620.
The full ranking holds about 33,000 sequences; the median of “E-score (-0.5 to 0.5)” is about -0.015, and the highest 2% start at about 0.3. Some of the results follow.

These sequences were tested against T1, Abf1 (UniProt P14164) (assay: PBM E-score (8-mer binding enrichment) (E-score (-0.5 to 0.5)); higher = stronger / more preferred TF binding). Settings: protein concentration: 200 nM; construct: GST-full length.
T1 sequence: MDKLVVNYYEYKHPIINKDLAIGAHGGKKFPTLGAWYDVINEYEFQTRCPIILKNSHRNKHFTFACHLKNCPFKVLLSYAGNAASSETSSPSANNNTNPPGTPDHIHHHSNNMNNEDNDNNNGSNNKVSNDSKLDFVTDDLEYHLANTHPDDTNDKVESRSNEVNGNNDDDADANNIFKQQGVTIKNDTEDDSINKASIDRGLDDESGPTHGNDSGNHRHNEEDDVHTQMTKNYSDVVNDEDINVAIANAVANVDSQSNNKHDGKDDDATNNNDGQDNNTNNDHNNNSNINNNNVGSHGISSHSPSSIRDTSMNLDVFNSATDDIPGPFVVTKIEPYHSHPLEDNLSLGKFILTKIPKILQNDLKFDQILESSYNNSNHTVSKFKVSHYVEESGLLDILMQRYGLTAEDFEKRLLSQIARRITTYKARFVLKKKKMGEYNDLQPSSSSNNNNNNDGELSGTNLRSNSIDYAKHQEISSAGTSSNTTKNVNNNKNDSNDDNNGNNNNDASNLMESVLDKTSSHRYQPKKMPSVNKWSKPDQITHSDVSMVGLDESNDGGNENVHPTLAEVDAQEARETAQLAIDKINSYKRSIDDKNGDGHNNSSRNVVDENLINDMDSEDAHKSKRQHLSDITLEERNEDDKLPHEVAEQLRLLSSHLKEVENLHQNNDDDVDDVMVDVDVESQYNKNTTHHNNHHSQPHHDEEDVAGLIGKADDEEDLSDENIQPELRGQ
Summary of the method: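 GST-tagged yeast TFs (full-length or DNA-binding domain) were made by PURExpress in vitro transcription/translation and applied at about 100-200 nM to universal all-10-mer Agilent arrays. The arrays were made double-stranded by primer extension, on fresh or once-stripped slides. Bound protein was detected with fluorescent anti-GST, and scans were normalised with masliner. Each ungapped eight-base word, pooled with its reverse complement, received an E-score (modified Wilcoxon-Mann-Whitney statistic) from the Universal PBM Analysis Suite.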

Sequence | PBM E-score
AAGATCGT | 0.332
CTTTTTAC | 0.136
AAAGATCC | 0.00287
AGGTTCCG | 0.0891
CTCTTTTA | -0.0551
CAGGGTCG | -0.234
CCCGGATC | -0.174
TGCACAAA | -0.105
AGCCATAC | 0.00148
ATCCTTGC | -0.28
AACCATTG | -0.158
CAGAATGA | 0.181
GAAATGAA | 0.164
CCAGAACC | -0.0419
CCAAAGCA | -0.0169
AATTACCC | 0.0522
AGCTTGGG | -0.143
GGTTTGCA | -0.0592
CGACGAAG | 0.357
GTGTAGAA | 0.114
CTATAGAC | -0.0763
CCCTAGCA | -0.289
GCTCTGCC | -0.314
ACTACCTA | 0.0953
CATTGAGA | 0.0238

Sequence | PBM E-score
GGATTCCC | -0.217
CAGCGTCA | -0.0771
CCAGGTCA | -0.0403
AGCAAACA | -0.0309
GGGTTAAC | -0.0685
CCTCTTAC | -0.233
AATCTGAT | 0.22
TGGCTCAA | -0.0517
CATTGCGA | 0.00247
AGTTCCTG | -0.136
CGTTCAAA | 0.199
CCAGGCAA | -0.0297
CTGCACCA | -0.194
CCTAGTAC | 0.0377
TGCAACCA | -0.0685
GTGGTGAA | -0.0783
CCTGGACA | -0.0296
ACGACGGG | 0.304
CTCATGCC | -0.0956
AGCGAGAC | -0.193
CTTTTGTA | 0.105
ATTCCCCA | -0.136
GGTTATCA | 0.272
CTTCTGGC | -0.17
AACTTTGT | -0.0289

Sequence | PBM E-score
CAGTAACC | -0.0485
CACGGGCA | 0.00373
CCCTTAAC | -0.163
AGACCCTC | -0.268
ATCACTTC | 0.376
GGACCTAA | -0.114
GGTGTGGA | -0.0215
CATTCACG | 0.123
CGTGGAAG | 0.113
CGCCTTAA | 0.0103
GGGGGACA | -0.0703
AGAGGTCA | 0.0222
CGCCGTGA | 0.232
CACGGGGC | 0.143
CGCCATGC | -0.0441
ATATAATA | 0.0977
GGGTAACA | -0.205
CACGCGTC | 0.227
CCTTTGCA | 0.0165
GCTAAGTA | 0.126
CCGTATTC | 0.25
AGCGGCCT | -0.203
AGCTGACA | -0.181
GCTGCGCA | -0.185
AGTTGTAG | 0.0291

An excerpt of these results, as labelled records:
AGAGGTCA
  PBM E-score: 0.0222
CACGGGGC
  PBM E-score: 0.143
ATATAATA
  PBM E-score: 0.0977

(continued)

Sequence | PBM E-score
ACGCTCGA | 0.00667
ACAAGGGA | -0.0819
TAAACTGA | 0.0308
CACACCGC | -0.155
AACATAGG | -0.0696
AGTAAGAG | -0.18
ACGTCGGC | 0.211
CCTCCAAA | -0.116
GCGTCACA | 0.02
AAAGGCTA | -0.0405
ACCTATTC | -0.0249
ACCGCACA | -0.186
AAGTCCGG | 0.107
AAATCGGA | -0.0585
GTCATTGA | 0.0887
GATTCTAA | -0.03
ATCTATCG | 0.0184
AGCAAGTC | -0.261
ATAACTGC | 0.00386
ATTTTCTG | -0.0421
AAGCCCCA | -0.232
ACGGAGCT | 0.0853
CGTACTGA | 0.205
ACGACGTC | 0.141
CAAGAGAA | -0.00821

Sequence | PBM E-score
CGCCCCTA | -0.0884
AACAGTAG | 0.0252
CGGACTGA | -0.16
GTAACACA | 0.0484
AAAGTCGC | 0.128
AATCAGAG | 0.011
GGACTAAA | 0.0347
CGATCGGC | 0.0275
CCCGAAGA | -0.25
CCAAACGA | 0.0941
ATGGGCAG | -0.0345
AGTCGACC | -0.0725
GCATCCGA | -0.146
TACGGCCA | 0.247
GCGAGAAC | -0.095
AACTAACG | 0.181
ACCTGTCT | -0.149
ACTTAGCT | -0.196
ATCTGTAA | -0.183
CGGCTTTA | -0.106
GCCCCGCA | -0.278
ACAGCACA | -0.0943
ACACCCCG | -0.142
CTGCTTGC | -0.128
CAATTGAG | -0.185

Sequence | PBM E-score
GCCTAGGA | -0.178
AGGTCGCC | -0.0212
AGAGTAGA | 0.0737
CAAACACA | -0.0026
CAAGCTAG | -0.112
CGCGACGA | 0.267
ATGAAGCG | -0.164
ACCGGTTC | -0.222
CATCTAGC | 0.0327
CACGTTCC | -0.104
TGGGTCAA | -0.0233
CTTTATTA | 0.121
CGACGACG | 0.177
CATCCGCA | 0.148
AAACTTAT | 0.184
AGGCAAGA | -0.0497
AGATCAGC | 0.0336
CCATTACC | -0.146
ATCTCTTC | 0.106
ACTCGCGC | -0.147
CGAAAATA | 0.131
GAGAGTTA | -0.098
CATACGCA | 0.168
AGGACGAC | 0.12
AATTTATG | 0.147

Sequence | PBM E-score
CACGGCCG | 0.228
GATTTTGA | 0.259
ACTCATGA | 0.14
ACCTCACC | -0.0217
TATATAAA | 0.236
CATTCTCA | 0.173
GTTGATGA | 0.283
CCAATGGG | -0.39
TTTCCAAA | -0.131
AGATTACG | -0.0794
TATAATAA | 0.0758
AGACCTTA | -0.0143
ACAATCGC | -0.0937
ACCACGGT | 0.119
CCCGTAGA | -0.0409
ACATGCCC | -0.148
AGGTCTAA | -0.106
AAAATACT | -0.0265
AAATATGT | 0.334
CAAGTCCG | -0.00708
CCCACCAG | -0.267
ATGAGTCA | 0.0874
ATATTCAG | 0.102
GCACCCCA | -0.171
ATGAATTG | 0.141

Sequence | PBM E-score
AATCAGGG | -0.152
ACGGGACG | 0.0216
GTCAGCGA | -0.087
TGTGAACA | 0.0252
CCAGCCCC | -0.321
TGGTCAAA | 0.111
AATTATGG | 0.0208
CATCGTAC | 0.382
GTCGACAC | 0.122
TACGTAAA | 0.27
GTGTTGGA | -0.0385
CACCTTAA | 0.0676
CGGGTCAA | -0.204
ACATCCCA | -0.0166
CAATAGAC | 0.00301
ATCCCTAC | 0.0477
GAGAGGGA | -0.137
AGGCCAAT | 0.0234
CCGTTAGG | 0.117
AGCTAACA | -0.113
GAGAAGCA | -0.11
CTAATAAA | 0.162
AGGCGAAC | 0.018
GACGCCCA | -0.113
AACTAAGG | -0.14

Pulled one by one from above, 7 records:
Sequence | PBM E-score
TGGTCAAA | 0.111
TGTGAACA | 0.0252
ACATCCCA | -0.0166
ATCCCTAC | 0.0477
CCAGCCCC | -0.321
AGCTAACA | -0.113
AATCAGGG | -0.152

Continuation:

Sequence | PBM E-score
GGCTTTGA | -0.0102
CGACCCTC | -0.152
AAGGCGTG | -0.00737
CCTGGCGA | -0.127
ACCGTTTG | 0.103
AGGGGTCC | -0.243
AGGGCCCC | -0.28
TGAGCGCA | -0.291
CGCCCAGA | -0.12
TAGCTCAA | -0.127
TACCGTCA | 0.262
AAAGTTGC | -0.0857
TGGCAACA | -0.126
CGGAGGAA | -0.228
ATTGTATA | 0.216
AAGGGGGA | -0.356
AGGTCTTG | -0.0441
CCTTAGGA | 0.00779
TATTTCAA | 0.294

For reference, part of the list above.
Sequence | PBM E-score
CGCCCAGA | -0.12
TAGCTCAA | -0.127
